# Data from patent US20120101040A1 (FUJIFILM, published 2012).
# Chains of the proteins cited; added tags and fusions are not shown. Residues count along the entry.
# UniProt P06756, 31-1048, chain 1 of 2: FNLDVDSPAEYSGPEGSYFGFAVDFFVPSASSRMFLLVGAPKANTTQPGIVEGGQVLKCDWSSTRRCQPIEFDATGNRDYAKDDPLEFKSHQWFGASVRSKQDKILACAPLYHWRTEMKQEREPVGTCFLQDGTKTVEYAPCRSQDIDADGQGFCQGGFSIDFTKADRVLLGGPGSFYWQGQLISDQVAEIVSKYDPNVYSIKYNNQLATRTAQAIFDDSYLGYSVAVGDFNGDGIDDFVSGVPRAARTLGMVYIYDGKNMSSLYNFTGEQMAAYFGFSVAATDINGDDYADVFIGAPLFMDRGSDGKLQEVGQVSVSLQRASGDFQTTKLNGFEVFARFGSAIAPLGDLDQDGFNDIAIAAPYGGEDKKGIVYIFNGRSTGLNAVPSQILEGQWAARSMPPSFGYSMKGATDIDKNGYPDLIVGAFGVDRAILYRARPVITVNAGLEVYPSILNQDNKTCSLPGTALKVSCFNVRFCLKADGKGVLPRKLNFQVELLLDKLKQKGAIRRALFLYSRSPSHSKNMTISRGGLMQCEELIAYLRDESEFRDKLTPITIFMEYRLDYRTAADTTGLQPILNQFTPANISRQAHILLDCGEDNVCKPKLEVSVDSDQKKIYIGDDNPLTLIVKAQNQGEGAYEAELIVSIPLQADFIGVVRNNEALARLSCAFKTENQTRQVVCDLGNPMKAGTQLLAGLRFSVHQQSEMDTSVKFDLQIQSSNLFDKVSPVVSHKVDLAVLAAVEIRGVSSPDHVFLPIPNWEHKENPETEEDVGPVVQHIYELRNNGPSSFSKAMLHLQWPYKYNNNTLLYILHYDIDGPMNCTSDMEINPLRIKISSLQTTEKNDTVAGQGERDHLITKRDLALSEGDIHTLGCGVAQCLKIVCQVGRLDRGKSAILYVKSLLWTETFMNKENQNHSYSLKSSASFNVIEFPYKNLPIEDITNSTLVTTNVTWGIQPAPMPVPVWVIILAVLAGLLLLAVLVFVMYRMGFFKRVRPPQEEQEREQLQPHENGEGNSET
# αVβ3 integrin on HUVECs (normal human umbilical vein endothelial cells), UniProt P05106, 27-788, chain 2 of 2: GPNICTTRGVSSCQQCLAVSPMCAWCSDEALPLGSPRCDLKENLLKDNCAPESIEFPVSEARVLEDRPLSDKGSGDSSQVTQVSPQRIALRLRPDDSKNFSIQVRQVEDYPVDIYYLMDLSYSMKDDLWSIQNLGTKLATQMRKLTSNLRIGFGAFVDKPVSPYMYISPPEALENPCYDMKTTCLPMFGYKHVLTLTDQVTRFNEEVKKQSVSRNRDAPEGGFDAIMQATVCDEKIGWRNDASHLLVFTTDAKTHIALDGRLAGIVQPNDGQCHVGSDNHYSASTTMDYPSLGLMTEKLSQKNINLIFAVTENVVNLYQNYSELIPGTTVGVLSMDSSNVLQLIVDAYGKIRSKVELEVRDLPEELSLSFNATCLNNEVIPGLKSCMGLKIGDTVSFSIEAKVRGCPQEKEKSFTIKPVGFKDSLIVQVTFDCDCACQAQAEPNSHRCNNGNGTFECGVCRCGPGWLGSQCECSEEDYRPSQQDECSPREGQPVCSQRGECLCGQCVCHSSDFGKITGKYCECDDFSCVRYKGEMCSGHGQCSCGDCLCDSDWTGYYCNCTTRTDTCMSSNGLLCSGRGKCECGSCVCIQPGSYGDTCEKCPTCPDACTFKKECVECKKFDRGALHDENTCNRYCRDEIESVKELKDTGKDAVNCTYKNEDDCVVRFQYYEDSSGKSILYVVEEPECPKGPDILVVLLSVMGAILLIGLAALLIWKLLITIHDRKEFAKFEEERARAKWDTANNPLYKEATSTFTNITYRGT
# B1: CBE3 recombinant gelatin (other)
# chain: GAPGAPGLQGAPGLQGMPGERGAAGLPGPKGERGDAGPKGADGAPGAPGLQGMPGERGAAGLPGPKGERGDAGPKGADGAPGKDGVRGLAGPIGPPGERGAAGLPGPKGERGDAGPKGADGAPGKDGVRGLAGPIGPPGPAGAPGAPGLQGMPGERGAAGLPGPKGERGDAGPKGADGAPGKDGVRGLAGPPGAPGLQGAPGLQGMPGERGAAGLPGPKGERGDAGPKGADGAPGAPGLQGMPGERGAAGLPGPKGERGDAGPKGADGAPGKDGVRGLAGPIGPPGERGAAGLPGPKGERGDAGPKGADGAPGKDGVRGLAGPIGPPGPAGAPGAPGLQGMPGERGAAGLPGPKGERGDAGPKGADGAPGKDGVRGLAGPPGAPGLQGAPGLQGMPGERGAAGLPGPKGERGDAGPKGADGAPGAPGLQGMPGERGAAGLPGPKGERGDAGPKGADGAPGKDGVRGLAGPIGPPGERGAAGLPGPKGERGDAGPKGADGAPGKDGVRGLAGPIGPPGPAGAPGAPGLQGMPGERGAAGLPGPKGERGDAGPKGADGAPGKDGVRGLAGPPG
# notes: Coated uncrosslinked from PBS solution onto non-treated 96-well plates in the cell adhesion tests; also called R-Gel
# Target: T1, αVβ3 integrin on HUVECs (normal human umbilical vein endothelial cells) (human, UniProt P06756 31-1048; P05106 27-788)
# T1 construct: whole, on cells; Never tested as a purified protein
# Experiment: HUVEC adhesion to coated plate, inhibited by anti-αV antibody, DNA assay
# Description: DNA assay was performed for quantitative determination of the number of cells on the obtained plates. 100 μl of SDS solution (i.e., a solution obtained by dissolving 20 mg of SDS in 100 mL of 1×SSC solution (obtained by dissolving 17.999 g of NaCl and 8.823 g of Na₃-citrate in 2 L of ultrapure water)) was added to wells of the obtained plates. Each plate was allowed to stand still at 37° C. for 1 hour. The total amount of each obtained solution was transferred to a 96-well black plate (Non-treated) and 100 μL of a Hoechst solution (obtained by mixing 20 μl of Hoechst 33258 with 20 mL of a 1×SSC solution) was added to every well, followed by determination of the fluorescence intensity using a plate reader. The fluorescence intensity was measured using a Gemini EM plate reader (Molecular Devices Corporation) at an excitation wavelength of 355 nm and a determination wavelength of 460 nm. A calibration curve was created using a suspension containing HUVECs at the adjusted number of cells.
# Specifically, cell adhesion experiments were conducted as described in (2) above. […] The time for cell adhesion was determined to be 1 hour at 37° C. as in the case of (2) above. Quantitative determination of the number of cells was carried out by DNA assay as in the case of (2) above.
binder,measurement,value
B1,binding result,binds
